Our source for the binding values is PMC7695697.

By UniProt entry, the sequences of proteins in these tests, tags left out. Where a name states a change or a piece, a line headed by the entry shows the natural chain unless it says otherwise.
UniProt P62873: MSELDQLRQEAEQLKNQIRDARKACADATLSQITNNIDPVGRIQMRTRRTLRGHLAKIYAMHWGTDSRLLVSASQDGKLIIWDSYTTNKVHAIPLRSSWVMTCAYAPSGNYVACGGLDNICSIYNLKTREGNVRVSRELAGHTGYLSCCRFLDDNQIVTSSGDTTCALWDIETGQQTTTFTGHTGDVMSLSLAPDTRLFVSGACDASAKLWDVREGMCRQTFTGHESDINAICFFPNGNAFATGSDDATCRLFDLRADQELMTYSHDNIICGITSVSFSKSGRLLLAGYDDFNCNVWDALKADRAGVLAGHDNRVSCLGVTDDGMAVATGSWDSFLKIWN
UniProt P63211: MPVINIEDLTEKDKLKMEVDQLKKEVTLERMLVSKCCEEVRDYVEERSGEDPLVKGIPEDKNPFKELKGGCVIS
UniProt Q03113: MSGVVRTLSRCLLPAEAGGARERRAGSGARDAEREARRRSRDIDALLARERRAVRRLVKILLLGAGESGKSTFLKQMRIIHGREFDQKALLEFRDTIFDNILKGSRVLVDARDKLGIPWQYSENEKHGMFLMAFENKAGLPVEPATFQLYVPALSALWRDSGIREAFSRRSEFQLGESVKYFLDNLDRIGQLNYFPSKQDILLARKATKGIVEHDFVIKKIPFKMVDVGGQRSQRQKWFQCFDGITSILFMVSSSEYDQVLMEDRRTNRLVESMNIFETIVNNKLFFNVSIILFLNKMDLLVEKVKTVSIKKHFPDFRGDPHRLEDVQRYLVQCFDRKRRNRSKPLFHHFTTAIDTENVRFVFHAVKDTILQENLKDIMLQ

These are yes or no findings as the source states them, for the method shown. Binding seen in cells or lysates may run through a third protein. Some results given as binding are weak or reduced against the parent protein; the word gives no strength.

The experiment addresses βγ dimer of Gβ1 and GFP10-Gγ1 (human) (UniProt P62873+P63211). The experiment in a line: FRET or BRET; BRET^2 between Gα-RlucII and GFP10-Gγ in living cells co-expressing PAR2 (human sensors with Gβ1 in HEK293 or HCT 116; mouse sensors in CMT-93); Tyrode Hepes buffer pH 7.4, 37 °C; hTrypsin, SLIGKV-NH2 or SLIGRL-NH2 for 1 min lowers the signal (separation of Gα from Gγ).

As for “Gα12-136-RlucII (from UniProt Q03113 1-381)”, the binding entry is “binds”.
